Test results reported in the supplement of paper PMC12819154, “High-throughput peptide-centric local stability assay extends protein–ligand identification to membrane proteins, tissues and bacteria” (Nature Structural & Molecular Biology, 2025).
This is one part of the list. Most entries show no effect beyond the scatter of the controls.

Amino acid sequences for entries named in this document (tags omitted). A change or cut given only in a name is not applied to a line headed by its entry.
UniProt Q7L590: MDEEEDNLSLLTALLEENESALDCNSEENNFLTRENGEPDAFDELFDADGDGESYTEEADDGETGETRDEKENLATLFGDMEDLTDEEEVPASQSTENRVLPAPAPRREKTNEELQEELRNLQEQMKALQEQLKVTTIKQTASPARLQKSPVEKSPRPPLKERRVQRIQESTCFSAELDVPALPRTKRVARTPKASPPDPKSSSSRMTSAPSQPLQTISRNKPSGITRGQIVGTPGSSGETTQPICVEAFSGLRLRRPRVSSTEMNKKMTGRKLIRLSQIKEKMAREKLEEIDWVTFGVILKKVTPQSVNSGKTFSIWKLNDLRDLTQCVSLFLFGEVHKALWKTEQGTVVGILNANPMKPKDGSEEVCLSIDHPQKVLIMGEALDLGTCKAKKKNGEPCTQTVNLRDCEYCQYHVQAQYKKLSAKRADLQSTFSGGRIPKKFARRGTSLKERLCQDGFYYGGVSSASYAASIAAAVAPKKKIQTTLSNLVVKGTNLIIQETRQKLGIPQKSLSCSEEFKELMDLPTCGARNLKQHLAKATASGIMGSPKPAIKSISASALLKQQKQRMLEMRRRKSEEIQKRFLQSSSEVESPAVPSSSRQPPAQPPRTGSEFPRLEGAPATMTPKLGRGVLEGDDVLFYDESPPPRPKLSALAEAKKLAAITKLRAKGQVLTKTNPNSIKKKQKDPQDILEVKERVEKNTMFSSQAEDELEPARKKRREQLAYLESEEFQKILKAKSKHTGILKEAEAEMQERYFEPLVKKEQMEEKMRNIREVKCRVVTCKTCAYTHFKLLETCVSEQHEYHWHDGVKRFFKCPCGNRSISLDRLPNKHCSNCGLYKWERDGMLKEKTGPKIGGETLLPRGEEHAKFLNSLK
UniProt Q7L099: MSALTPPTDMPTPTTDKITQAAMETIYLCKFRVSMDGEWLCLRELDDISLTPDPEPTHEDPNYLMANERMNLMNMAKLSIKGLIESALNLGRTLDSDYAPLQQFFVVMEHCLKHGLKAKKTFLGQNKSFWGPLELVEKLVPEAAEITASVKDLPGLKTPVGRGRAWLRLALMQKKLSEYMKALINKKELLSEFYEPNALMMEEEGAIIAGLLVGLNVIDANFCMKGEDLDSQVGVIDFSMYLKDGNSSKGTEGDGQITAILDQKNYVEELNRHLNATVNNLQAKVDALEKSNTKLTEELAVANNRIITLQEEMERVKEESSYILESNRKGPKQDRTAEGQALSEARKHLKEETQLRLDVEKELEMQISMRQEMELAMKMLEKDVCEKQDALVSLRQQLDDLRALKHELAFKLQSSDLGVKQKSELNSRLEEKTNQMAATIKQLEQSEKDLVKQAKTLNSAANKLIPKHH
UniProt Q6ZMV9: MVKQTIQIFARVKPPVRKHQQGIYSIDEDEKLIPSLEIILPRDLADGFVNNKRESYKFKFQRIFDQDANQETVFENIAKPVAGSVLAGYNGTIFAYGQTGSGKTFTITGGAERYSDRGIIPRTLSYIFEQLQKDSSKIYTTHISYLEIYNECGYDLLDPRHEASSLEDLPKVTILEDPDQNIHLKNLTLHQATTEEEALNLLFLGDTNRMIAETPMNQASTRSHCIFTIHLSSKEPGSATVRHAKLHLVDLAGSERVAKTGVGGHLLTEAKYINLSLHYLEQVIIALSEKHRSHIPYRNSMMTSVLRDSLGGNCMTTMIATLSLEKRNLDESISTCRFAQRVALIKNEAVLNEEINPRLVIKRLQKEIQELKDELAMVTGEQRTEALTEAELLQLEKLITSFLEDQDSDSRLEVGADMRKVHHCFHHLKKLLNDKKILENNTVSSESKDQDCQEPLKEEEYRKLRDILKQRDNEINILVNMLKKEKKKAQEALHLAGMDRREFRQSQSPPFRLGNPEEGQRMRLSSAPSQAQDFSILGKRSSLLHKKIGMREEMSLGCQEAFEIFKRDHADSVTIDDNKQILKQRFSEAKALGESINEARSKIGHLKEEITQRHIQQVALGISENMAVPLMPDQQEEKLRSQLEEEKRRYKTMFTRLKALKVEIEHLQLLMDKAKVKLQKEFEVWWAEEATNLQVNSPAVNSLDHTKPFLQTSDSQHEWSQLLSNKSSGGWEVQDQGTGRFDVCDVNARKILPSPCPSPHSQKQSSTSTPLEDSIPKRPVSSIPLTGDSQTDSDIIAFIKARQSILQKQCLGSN
UniProt Q7L014: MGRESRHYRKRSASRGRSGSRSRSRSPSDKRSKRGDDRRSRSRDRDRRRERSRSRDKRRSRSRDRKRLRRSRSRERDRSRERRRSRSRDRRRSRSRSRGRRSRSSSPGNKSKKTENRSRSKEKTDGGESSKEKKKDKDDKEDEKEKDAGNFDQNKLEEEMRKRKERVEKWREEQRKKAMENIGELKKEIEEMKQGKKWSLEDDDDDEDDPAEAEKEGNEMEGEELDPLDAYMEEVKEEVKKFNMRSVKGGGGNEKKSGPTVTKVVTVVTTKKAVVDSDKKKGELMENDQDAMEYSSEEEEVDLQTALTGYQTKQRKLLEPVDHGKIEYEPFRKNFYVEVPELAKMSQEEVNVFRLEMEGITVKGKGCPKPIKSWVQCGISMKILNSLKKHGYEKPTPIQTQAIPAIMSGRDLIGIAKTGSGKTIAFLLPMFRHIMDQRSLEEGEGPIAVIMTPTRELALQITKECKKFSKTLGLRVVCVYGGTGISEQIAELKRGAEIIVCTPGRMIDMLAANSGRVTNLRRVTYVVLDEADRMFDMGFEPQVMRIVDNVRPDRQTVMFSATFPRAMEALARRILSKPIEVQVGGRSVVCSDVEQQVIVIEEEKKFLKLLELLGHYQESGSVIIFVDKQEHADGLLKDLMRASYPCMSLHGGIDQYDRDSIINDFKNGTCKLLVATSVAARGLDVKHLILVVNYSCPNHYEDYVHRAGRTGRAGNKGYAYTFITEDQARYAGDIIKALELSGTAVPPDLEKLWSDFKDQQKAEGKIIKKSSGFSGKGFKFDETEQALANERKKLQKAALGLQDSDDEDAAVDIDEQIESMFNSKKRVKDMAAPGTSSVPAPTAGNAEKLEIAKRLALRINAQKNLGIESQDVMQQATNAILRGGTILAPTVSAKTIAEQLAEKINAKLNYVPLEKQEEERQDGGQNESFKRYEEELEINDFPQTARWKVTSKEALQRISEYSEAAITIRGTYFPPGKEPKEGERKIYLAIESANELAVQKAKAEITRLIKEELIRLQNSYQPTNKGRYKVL
UniProt Q86UU0: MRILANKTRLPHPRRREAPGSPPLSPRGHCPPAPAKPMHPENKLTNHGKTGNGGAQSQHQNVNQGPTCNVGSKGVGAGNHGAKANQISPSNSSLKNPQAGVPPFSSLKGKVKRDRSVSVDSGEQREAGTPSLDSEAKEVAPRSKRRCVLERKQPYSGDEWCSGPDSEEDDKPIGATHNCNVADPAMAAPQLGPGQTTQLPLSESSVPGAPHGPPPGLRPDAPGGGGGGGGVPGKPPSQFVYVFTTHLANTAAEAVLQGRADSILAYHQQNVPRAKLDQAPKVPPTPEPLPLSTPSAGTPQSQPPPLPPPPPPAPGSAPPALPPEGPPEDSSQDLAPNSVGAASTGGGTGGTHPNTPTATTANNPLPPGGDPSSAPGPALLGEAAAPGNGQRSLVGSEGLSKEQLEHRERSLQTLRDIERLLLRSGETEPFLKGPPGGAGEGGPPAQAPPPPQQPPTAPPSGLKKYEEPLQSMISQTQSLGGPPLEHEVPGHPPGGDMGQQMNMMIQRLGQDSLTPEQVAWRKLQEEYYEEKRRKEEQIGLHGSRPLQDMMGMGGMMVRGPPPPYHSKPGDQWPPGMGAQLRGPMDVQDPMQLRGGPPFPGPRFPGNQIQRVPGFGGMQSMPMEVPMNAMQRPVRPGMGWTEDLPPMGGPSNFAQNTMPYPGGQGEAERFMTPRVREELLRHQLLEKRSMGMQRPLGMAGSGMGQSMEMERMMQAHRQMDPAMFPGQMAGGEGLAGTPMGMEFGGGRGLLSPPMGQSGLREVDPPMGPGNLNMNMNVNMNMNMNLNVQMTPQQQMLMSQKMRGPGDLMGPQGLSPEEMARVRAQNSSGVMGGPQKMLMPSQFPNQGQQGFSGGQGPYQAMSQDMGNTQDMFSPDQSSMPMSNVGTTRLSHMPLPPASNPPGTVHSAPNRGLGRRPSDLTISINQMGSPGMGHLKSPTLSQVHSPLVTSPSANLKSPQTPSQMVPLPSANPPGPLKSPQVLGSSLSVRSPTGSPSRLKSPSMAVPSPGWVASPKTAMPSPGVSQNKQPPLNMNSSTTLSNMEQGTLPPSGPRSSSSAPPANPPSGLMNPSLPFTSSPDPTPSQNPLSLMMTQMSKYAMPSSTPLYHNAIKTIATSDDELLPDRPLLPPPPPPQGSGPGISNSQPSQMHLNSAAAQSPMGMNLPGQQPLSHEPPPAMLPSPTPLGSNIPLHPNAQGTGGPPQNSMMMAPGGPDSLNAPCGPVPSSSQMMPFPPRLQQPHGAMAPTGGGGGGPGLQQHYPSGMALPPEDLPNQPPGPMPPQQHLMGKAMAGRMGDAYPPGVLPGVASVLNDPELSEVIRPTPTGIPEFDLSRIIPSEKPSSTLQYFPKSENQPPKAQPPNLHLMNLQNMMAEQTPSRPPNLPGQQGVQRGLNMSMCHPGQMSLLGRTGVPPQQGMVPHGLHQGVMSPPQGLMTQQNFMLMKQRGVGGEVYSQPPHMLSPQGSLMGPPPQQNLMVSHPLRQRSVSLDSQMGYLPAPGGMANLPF
UniProt Q6ZN55: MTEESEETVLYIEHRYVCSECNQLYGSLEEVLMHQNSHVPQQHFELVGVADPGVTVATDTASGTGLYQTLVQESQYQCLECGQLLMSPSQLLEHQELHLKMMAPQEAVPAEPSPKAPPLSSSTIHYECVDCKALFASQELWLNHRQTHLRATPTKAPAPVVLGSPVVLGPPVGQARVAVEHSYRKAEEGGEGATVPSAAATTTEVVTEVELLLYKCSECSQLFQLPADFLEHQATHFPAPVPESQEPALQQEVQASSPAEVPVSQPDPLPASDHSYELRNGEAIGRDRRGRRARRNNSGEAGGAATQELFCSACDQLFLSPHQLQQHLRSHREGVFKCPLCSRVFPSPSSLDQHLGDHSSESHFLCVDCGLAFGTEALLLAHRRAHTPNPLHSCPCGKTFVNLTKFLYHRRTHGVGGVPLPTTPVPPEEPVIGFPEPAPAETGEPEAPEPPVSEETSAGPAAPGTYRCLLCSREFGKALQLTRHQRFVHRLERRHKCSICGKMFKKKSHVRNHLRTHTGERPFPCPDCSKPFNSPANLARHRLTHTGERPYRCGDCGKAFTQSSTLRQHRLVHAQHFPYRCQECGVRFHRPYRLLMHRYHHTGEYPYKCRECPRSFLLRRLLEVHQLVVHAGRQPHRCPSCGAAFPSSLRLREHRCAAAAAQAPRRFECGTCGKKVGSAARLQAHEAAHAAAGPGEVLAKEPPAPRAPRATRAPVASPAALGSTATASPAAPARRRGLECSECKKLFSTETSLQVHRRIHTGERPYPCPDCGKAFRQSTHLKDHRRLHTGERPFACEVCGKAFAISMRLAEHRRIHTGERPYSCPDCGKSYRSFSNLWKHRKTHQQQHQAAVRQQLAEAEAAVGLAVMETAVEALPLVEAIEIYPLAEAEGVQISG
UniProt Q86SE9: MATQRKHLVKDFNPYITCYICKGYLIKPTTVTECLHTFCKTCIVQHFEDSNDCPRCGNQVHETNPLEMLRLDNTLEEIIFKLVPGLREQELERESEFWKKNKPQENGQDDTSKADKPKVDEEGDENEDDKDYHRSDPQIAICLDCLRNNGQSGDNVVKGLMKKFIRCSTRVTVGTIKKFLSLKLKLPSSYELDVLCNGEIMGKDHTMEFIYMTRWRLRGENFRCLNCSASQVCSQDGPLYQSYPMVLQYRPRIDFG
UniProt Q7Z5L9: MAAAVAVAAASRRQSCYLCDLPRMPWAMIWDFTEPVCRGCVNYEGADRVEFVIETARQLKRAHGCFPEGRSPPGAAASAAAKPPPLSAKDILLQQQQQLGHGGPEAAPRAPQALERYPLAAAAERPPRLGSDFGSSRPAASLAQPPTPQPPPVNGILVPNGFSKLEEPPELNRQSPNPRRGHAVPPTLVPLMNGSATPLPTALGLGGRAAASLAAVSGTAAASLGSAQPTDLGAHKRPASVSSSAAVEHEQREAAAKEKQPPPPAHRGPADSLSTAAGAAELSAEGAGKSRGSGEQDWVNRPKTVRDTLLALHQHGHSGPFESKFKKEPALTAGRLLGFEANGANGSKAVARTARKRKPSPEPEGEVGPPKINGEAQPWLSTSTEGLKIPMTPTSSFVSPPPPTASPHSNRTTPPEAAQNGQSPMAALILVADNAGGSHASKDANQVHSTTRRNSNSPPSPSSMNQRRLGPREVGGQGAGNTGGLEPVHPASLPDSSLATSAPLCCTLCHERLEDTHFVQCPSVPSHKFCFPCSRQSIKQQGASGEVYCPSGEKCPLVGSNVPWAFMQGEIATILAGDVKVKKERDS

compound: Cc1nc(Nc2ncc(C(=O)Nc3c(C)cccc3Cl)s2)cc(N2CCN(CCO)CC2)n1 [dasatinib]; assay: log2 fold change of tryptic peptide abundance, ligand vs vehicle (limited proteolysis) (log2 ratio); higher = more trypsin-susceptible (destabilized); conditions: ligand concentration: 5 uM; sample: K562 cleared lysate

Target	log2 fold change
UniProt Q70EK8 (peptide sequence: EKALPSDNIR, peptide start residue: 90)	-0.146
ATG14 (peptide sequence: NLMYLVSPSSEHLGR, peptide start residue: 377) (UniProt Q6ZNE5)	-0.475
SH3BP5L (peptide sequence: LSPREEEELDPR, peptide start residue: 48) (UniProt Q7L8J4)	-0.391
DEF8 (peptide sequence: YLALMVSRPVLR, peptide start residue: 338) (UniProt Q6ZN54)	-0.237
MTDH (peptide sequence: WNSVSPASAGK, peptide start residue: 304) (UniProt Q86UE4)	0.261
KTN1 (peptide sequence: SGVIQDALKK, peptide start residue: 312) (UniProt Q86UP2)	0.32
UniProt Q7Z2T5 (peptide sequence: MGAHYHCIICSATITRR, peptide start residue: 180)	0.214
MCM10 (peptide sequence: DCEYCQYHVQAQYK, peptide start residue: 408) (UniProt Q7L590)	-0.597
SSH2 (peptide sequence: SLSHSPGVVK, peptide start residue: 1223) (UniProt Q76I76)	0.272
RUFY3 (peptide sequence: KTFLGQNK, peptide start residue: 120) (UniProt Q7L099)	-0.421
UniProt Q6ZMV9 (peptide sequence: LRSQLEEEK, peptide start residue: 639)	-0.564
UniProt Q6ZUT1 (peptide sequence: KMLPSSSSR, peptide start residue: 50)	0.23
UniProt Q6ZW61 (peptide sequence: VEADNNTSR, peptide start residue: 206)	0.178
EPM2AIP1 (peptide sequence: EVLPEHVSVLQGVDLSPDITR, peptide start residue: 131) (UniProt Q7L775)	0.416
DDX46 (peptide sequence: DAGNFDQNK, peptide start residue: 147) (UniProt Q7L014)	0.357
UniProt Q6ZSR9 (peptide sequence: GLPLYPDPSR, peptide start residue: 5)	-0.149
STXBP4 (peptide sequence: TFEASTEK, peptide start residue: 422) (UniProt Q6ZWJ1)	0.623
BCL9L (peptide sequence: YAMPSSTPLYHNAIK, peptide start residue: 1094) (UniProt Q86UU0)	-0.135
UniProt Q76N89 (peptide sequence: AGREEEEK, peptide start residue: 497)	-0.124
UniProt Q6ZMT4 (peptide sequence: AIEEENGK, peptide start residue: 474)	0.401
ZNF574 (peptide sequence: RFECGTCGK, peptide start residue: 666) (UniProt Q6ZN55)	0.559
PCGF5 (peptide sequence: ESEFWKK, peptide start residue: 94) (UniProt Q86SE9)	-0.446
BCDIN3D (peptide sequence: KVLLSSFLSQFGR, peptide start residue: 143) (UniProt Q7Z5W3)	0.431
NUFIP2 (peptide sequence: TSPQVLGSILK, peptide start residue: 571) (UniProt Q7Z417)	-0.0639
IRF2BP2 (peptide sequence: DANQVHSTTR, peptide start residue: 443) (UniProt Q7Z5L9)	0.0945
TECPR1 (peptide sequence: NATGNSASGLGAGR, peptide start residue: 439) (UniProt Q7Z6L1)	-0.0735
UniProt Q765P7 (peptide sequence: TPSTKPTVR, peptide start residue: 567)	0.554
CYFIP1 (peptide sequence: HTVYAALQDFSQVTLREPLR, peptide start residue: 478) (UniProt Q7L576)	0.649
RBM23 (peptide sequence: LAAMANNLQK, peptide start residue: 248) (UniProt Q86U06)	-0.208

Already shown: an excerpt of the list.
Target	log2 fold change
SSH2 (peptide sequence: SLSHSPGVVK, peptide start residue: 1223) (UniProt Q76I76)	0.272
RUFY3 (peptide sequence: KTFLGQNK, peptide start residue: 120) (UniProt Q7L099)	-0.421
UniProt Q6ZMV9 (peptide sequence: LRSQLEEEK, peptide start residue: 639)	-0.564
UniProt Q6ZUT1 (peptide sequence: KMLPSSSSR, peptide start residue: 50)	0.23
UniProt Q6ZW61 (peptide sequence: VEADNNTSR, peptide start residue: 206)	0.178
EPM2AIP1 (peptide sequence: EVLPEHVSVLQGVDLSPDITR, peptide start residue: 131) (UniProt Q7L775)	0.416
